Experimental data taken from US8545876B1, “Modified drugs for use in liposomal nanoparticles” (The University of British Columbia, priority 2008, dated 2013).

Test: Loading efficiency into LN (ammonium sulfate gradient)
Format: physicochemical

SMILES	amount of derivative associated with the LN carrier (absence of the ammonium sulfate (pH) gradient)	loading efficiency (prednisone derivatives, DSPC/Chol LN, after 15 min of incubation at 60° C., ammonium sulfate gradient, external pH 5) [%]	loading efficiency (DMPC/Chol LN, within 15 min of incubation at 60° C., drug-to-lipid ratio 0.16 wt/wt) [%]
CN1CCN(CCCC(=O)OCC(=O)[C@@]2(O)CC[C@H]3[C@@H]4CCC5=CC(=O)C=C[C@]5(C)[C@H]4C(=O)C[C@@]32C)CC1 [N-methyl-piperazinyl-butanoic acid ester]	no measurable amount	100	
COc1cc([C@@H]2c3cc4c(cc3[C@@H](O[C@@H]3O[C@@H]5CO[C@@H](C)O[C@H]5[C@H](O)[C@H]3O)[C@H]3COC(=O)[C@H]23)OCO4)cc(OC)c1OC(=O)CCCN1CCN(C)CC1 [etoposide derivative]			100
